Record: PubChem BioAssay AID1224830 (NIAID, 2016)
Test: 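Genes whose knock-down alters the TNF-alpha reporter response to LPS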 (primary screen). System: human THP-1 monocytic leukaemia cells, TNF dual-luciferase reporter clone, PMA-differentiated to macrophage-like cells. Reagent: siRNA pool against human genes, 50 nM. Time to read-out: LPS for 4 h, given about 3 days after siRNA transfection. Conditions: bacterial LPS (TLR4 ligand), 10 ng/ml. Measured: 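TNF firefly reporter luminescence divided by renilla, normalised to the plate median, then turned into a robust z-score for each replicate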. Reading the numbers: TNF reporter robust z-score: higher = stronger TNF reporter response to LPS. Active means: 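Each well counts as active if its z-score is over 2.8 or under -1.5; controls are left without a call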.
The whole screen tested about 18,000 reagents; below is a part drawn at random. Over the whole deposit, about 2,900 (16%) were called active. 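Calls are made per well; low scores hint the gene aids the LPS response, high scores that it dampens it.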 Repeated entries: four replicate wells of each siRNA pool. Reagent sequences are not shown.

ARID5A (AT-rich interaction domain 5A): TNF reporter robust z-score = -0.54; activity call = inactive
ARID5A (AT-rich interaction domain 5A): TNF reporter robust z-score = -0.4; activity call = inactive
ARID5A (AT-rich interaction domain 5A): TNF reporter robust z-score = 0.08; activity call = inactive
ARID5A (AT-rich interaction domain 5A): TNF reporter robust z-score = -0.03; activity call = inactive
PYDC2 (pyrin domain containing 2): TNF reporter robust z-score = -0.86; activity call = inactive
PYDC2 (pyrin domain containing 2): TNF reporter robust z-score = 1.12; activity call = inactive
PYDC2 (pyrin domain containing 2): TNF reporter robust z-score = 0.48; activity call = inactive
PYDC2 (pyrin domain containing 2): TNF reporter robust z-score = 1.19; activity call = inactive
TTC23 (tetratricopeptide repeat domain 23): TNF reporter robust z-score = -1.15; activity call = inactive
TTC23 (tetratricopeptide repeat domain 23): TNF reporter robust z-score = -0.2; activity call = inactive
TTC23 (tetratricopeptide repeat domain 23): TNF reporter robust z-score = -0.35; activity call = inactive
TTC23 (tetratricopeptide repeat domain 23): TNF reporter robust z-score = -0.59; activity call = inactive
CUBN (cubilin): TNF reporter robust z-score = 1.06; activity call = inactive
CUBN (cubilin): TNF reporter robust z-score = -0.23; activity call = inactive
CUBN (cubilin): TNF reporter robust z-score = -0.06; activity call = inactive
CUBN (cubilin): TNF reporter robust z-score = 1.49; activity call = inactive
EPN2 (epsin 2): TNF reporter robust z-score = 3.02; activity call = active
EPN2 (epsin 2): TNF reporter robust z-score = 1.72; activity call = inactive
EPN2 (epsin 2): TNF reporter robust z-score = -0.07; activity call = inactive
EPN2 (epsin 2): TNF reporter robust z-score = 0.3; activity call = inactive
CLEC18B (C-type lectin domain family 18 member B): TNF reporter robust z-score = 1.13; activity call = inactive
CLEC18B (C-type lectin domain family 18 member B): TNF reporter robust z-score = 0.01; activity call = inactive
CLEC18B (C-type lectin domain family 18 member B): TNF reporter robust z-score = 0.29; activity call = inactive
CLEC18B (C-type lectin domain family 18 member B): TNF reporter robust z-score = 0.24; activity call = inactive
TIGD1 (tigger transposable element derived 1): TNF reporter robust z-score = 0.55; activity call = inactive
TIGD1 (tigger transposable element derived 1): TNF reporter robust z-score = 3.02; activity call = active
TIGD1 (tigger transposable element derived 1): TNF reporter robust z-score = 1.79; activity call = inactive
TIGD1 (tigger transposable element derived 1): TNF reporter robust z-score = 2.35; activity call = inactive
CENPT (centromere protein T): TNF reporter robust z-score = 0.03; activity call = inactive
CENPT (centromere protein T): TNF reporter robust z-score = 0.83; activity call = inactive
CENPT (centromere protein T): TNF reporter robust z-score = -0.65; activity call = inactive
CENPT (centromere protein T): TNF reporter robust z-score = 2.53; activity call = inactive
BMP2 (bone morphogenetic protein 2): TNF reporter robust z-score = 1.43; activity call = inactive
BMP2 (bone morphogenetic protein 2): TNF reporter robust z-score = 1.78; activity call = inactive
BMP2 (bone morphogenetic protein 2): TNF reporter robust z-score = 1.56; activity call = inactive
BMP2 (bone morphogenetic protein 2): TNF reporter robust z-score = 2.33; activity call = inactive
PDZK1 (PDZ domain containing 1): TNF reporter robust z-score = 1.62; activity call = inactive
PDZK1 (PDZ domain containing 1): TNF reporter robust z-score = 1.52; activity call = inactive
PDZK1 (PDZ domain containing 1): TNF reporter robust z-score = 2.75; activity call = inactive
PDZK1 (PDZ domain containing 1): TNF reporter robust z-score = 1.89; activity call = inactive
UGT2A3 (UDP glucuronosyltransferase family 2 member A3): TNF reporter robust z-score = -0.77; activity call = inactive
UGT2A3 (UDP glucuronosyltransferase family 2 member A3): TNF reporter robust z-score = -0.2; activity call = inactive
UGT2A3 (UDP glucuronosyltransferase family 2 member A3): TNF reporter robust z-score = -0.78; activity call = inactive
UGT2A3 (UDP glucuronosyltransferase family 2 member A3): TNF reporter robust z-score = -0.8; activity call = inactive
CYCS (cytochrome c, somatic): TNF reporter robust z-score = 1.09; activity call = inactive
CYCS (cytochrome c, somatic): TNF reporter robust z-score = 12.4; activity call = active
CYCS (cytochrome c, somatic): TNF reporter robust z-score = 0.56; activity call = inactive
CYCS (cytochrome c, somatic): TNF reporter robust z-score = -0.05; activity call = inactive

6 successive reagents already listed, for reference:
PYDC2 (pyrin domain containing 2): TNF reporter robust z-score = -0.86; activity call = inactive
PYDC2 (pyrin domain containing 2): TNF reporter robust z-score = 1.12; activity call = inactive
PYDC2 (pyrin domain containing 2): TNF reporter robust z-score = 0.48; activity call = inactive
PYDC2 (pyrin domain containing 2): TNF reporter robust z-score = 1.19; activity call = inactive
TTC23 (tetratricopeptide repeat domain 23): TNF reporter robust z-score = -1.15; activity call = inactive
TTC23 (tetratricopeptide repeat domain 23): TNF reporter robust z-score = -0.2; activity call = inactive
